This note sets out measurements from PubChem BioAssay AID493014 (National Center for Advancing Translational Sciences (NCATS), 2011).

Broadly, the AC50 is the concentration giving half of the maximal activity seen.

This is one part of the list. These are further read-outs of the screen, such as a control signal, another cell line or another target. No call is given for them. Most of these compounds were active or inconclusive in the main read-out, so they are no random draw. Words in brackets tell the shape of the fitted curve; partial curves, single points and poor fits give uncertain potencies.

This assay in a line: qHTS Assay to Find Inhibitors of Chronic Active B-Cell Receptor Signaling. The note with it: ABC-DLBCL IkBa-CBG/CBR reporter, luminescence ratio (green luciferase fused to IkBa over red control in TMD8 lymphoma cells), 4 h. The method in brief:
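Compounds up to 46 uM were incubated four hours with TMD8 cells whose green CBG68 luciferase is fused to IkappaBalpha; red CBR luminescence normalised the signal, and concentration-effect curves were fitted to fusion, red and ratio data.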
Background: In qHTS, concentration-response curves come from the screen itself.

Setting [1] is: measured here: CBR red luminescence, cell number.
Where [2] appears, read: measured here: IkBa-CBG green luminescence.

With `Cc1cc(N2CCCCC2)n2ncc(-c3ccccc3)c2n1`, the AC50 under setting [1] was 1.26 µM [rising, full curve, poor fit].

For the compound `Cc1cc(C)c(C)c(S(=O)(=O)NNC(=O)c2cccc(S(=O)(=O)N3CCOCC3)c2)c1C`, the AC50 under setting [1] is 3.26 µM [rising, single point].

Take `Cc1nc2ccc(NC(=O)c3ccc([N+](=O)[O-])cc3)cc2s1`: under setting [1], the AC50 is 2.91 µM [rising, partial curve].

For the compound `Cc1cc(C(=O)COC(=O)c2cccn2C)c(C)n1Cc1ccco1`, the AC50 under setting [1] was 14.1 µM [falling, single point].

With `CCOC(=O)N/N=C\C=C\c1ccc2c(c1)OCO2`, the AC50 under setting [1] is 23.1 µM [falling, single point].

As to `N#Cc1ccccc1NCc1ccccc1`, the AC50 under setting [1] is 12.6 µM [rising, single point].

As to `COc1ccc2c(c1)OC[C@H]1[C@H]2N2C(=O)CN(Cc3ccc(Cl)cc3)C(=O)[C@@]2(C)[C@H]1c1ccccc1`, the AC50 under setting [1] is 29.1 µM [falling, partial curve, poor fit].

As to `O=C(Nc1ccccc1OC(F)F)c1cc2c(s1)CCC2`, the AC50 under setting [1] is 6.51 µM [rising, partial curve].

On to `CCOC(=O)c1cc2c(=O)c3ccccc3oc2nc1C`, for which the AC50 under setting [1] was 35.5 µM [rising, single point].

`CCN(CC)c1ccc2c(Cl)c(Br)c(=O)oc2c1`: the AC50 was 35.5 µM [falling, single point] under setting [1] and 22.4 µM [rising, partial curve, poor fit] under setting [2].

On to `Cc1sc(NC(=O)C2=COCCO2)c(C#N)c1C`, for which the AC50 under setting [1] is 8.2 µM [rising, partial curve, poor fit].

For `COC(=O)c1ccc(Cn2cc(Cl)cn2)cc1`, the AC50 under setting [1] was 10 µM [rising, partial curve].

With `c1ccc(OCc2nc3ccccc3[nH]2)cc1`, the AC50 under setting [1] is 16.4 µM [falling, single point].

With `Cc1c(C(=O)N(Cc2ccccc2)C(C)C)oc2ccc(S(=O)(=O)N3CCOCC3)cc12`, the AC50 under setting [1] is 35.5 µM [falling, single point].

With `COc1ccc(NC(=O)c2ccccc2NC(=O)c2ccco2)cc1`, the AC50 under setting [1] is 11.2 µM [falling, partial curve, poor fit].

For the compound `CC1=C(C#N)C(=O)N(C2CCS(=O)(=O)C2)C(=O)/C1=C\c1ccc(C)o1` (stereo not given), the concentration at half-maximal activity (AC50) under setting [1] is 1 µM [rising, full curve, poor fit].

In the case of `Nc1cccc2c1C(=O)N(CCOc1ccc(F)cc1)C2=O`, the AC50 under setting [1] was 0.794 µM [rising, full curve].

Regarding `Cc1ccc(-c2nn(-c3ccccc3)cc2C(N)=O)o1`, under setting [1], the AC50 was 7.94 µM [falling, partial curve].

As to `Cc1ccc(OCC(=O)NCCS(=O)(=O)N2CCN(c3ccccc3)CC2)cc1`, the AC50 under setting [1] is 0.146 µM [rising, full curve, poor fit].

As for `O=C(O)c1cccc(Nc2ncnc3sccc23)c1`, the AC50 under setting [1] was 5.62 µM [falling, partial curve].

Consider `O=C(NC1CCCC1)c1cc2cc(Br)ccc2o1`, for which the AC50 under setting [1] was 10 µM [falling, partial curve].

Regarding `CCC(CO)[n+]1c(C)cc(/C=C2\Sc3ccccc3N2Cc2ccccc2)cc1C` (stereo not given), the AC50 under setting [1] is 11.6 µM [falling, partial curve, poor fit].

With `CN(c1ccccc1)S(=O)(=O)c1ccc(NC(=S)NC(=O)c2ccccc2)cc1`, the AC50 under setting [1] is 7.31 µM [falling, partial curve].

As for `CCc1nc(SCC(=O)NCCc2ccccc2)n[nH]1`, under setting [1], the AC50 is 32.6 µM [rising, single point].

For `COC(=O)CSc1nc(N)c(C#N)c(CC(C)C)c1C#N`, the AC50 under setting [1] is 8.2 µM [falling, partial curve].

With `O=C(Nc1cccc(C(=O)O)c1)Nc1ccccc1Cl`, under setting [1], the AC50 was 11.2 µM [falling, partial curve].

With `O=S(=O)(/N=C(/Nc1ccc(Cl)c(S(=O)(=O)Nc2ccccc2Cl)c1)c1ccc(F)cc1)c1ccccc1`, under setting [1], the half-maximal activity concentration (AC50) is 35.5 µM [falling, single point].

Take `O=C(Nc1nccs1)c1ccc2ccccc2c1`: under setting [1], the AC50 is 11.2 µM [falling, partial curve].

As to `CCCN(CCC)CC(=O)N1CC(=O)Nc2ccccc21`, under setting [1], the AC50 is 0.447 µM [rising, full curve, poor fit].

As for `O=C(Nc1ccccc1)c1ccccc1OCC(O)CN1C(=O)c2ccccc2S1(=O)=O` (stereo not given), the AC50 under setting [1] was 3.55 µM [rising, single point].

For `COc1ccc(NC(=O)c2ccc(S(=O)(=O)N3CCCCCC3)cc2)c(OC)c1`, the AC50 under setting [1] was 0.794 µM [rising, partial curve].

Take `CN1CCc2c(c3ccccc3n2C)C1`: the AC50 under setting [1] is 28.2 µM [falling, single point].

Turning to `COc1ccccc1-c1nnc(Nc2nc3c(OC)cccc3s2)o1`, the AC50 by setting is: under setting [1], 1.64 µM [falling, full curve]; under setting [2], 2.59 µM [falling, full curve].

Consider `Cc1ccc(SCC(=O)N2CCC(C(N)=O)CC2)cc1`, for which, under setting [1], the AC50 is 7.94 µM [rising, partial curve].

For `O=C(NCc1cccs1)Nc1ccc2c(c1)OCO2`, the AC50 under setting [1] is 9.2 µM [falling, partial curve].

Turning to `CCOC(=O)C1=C(C)NC(=O)NC1C` (stereo not given), under setting [1], the AC50 is 29.1 µM [rising, single point].

For `Cc1ccc(CCNC(=O)C2=CCN(S(=O)(=O)c3ccccc3)CC2)cc1`, the AC50 under setting [1] is 2.82 µM [falling, partial curve, poor fit].

As for `CCn1c(-c2ccccc2Cl)nn(CC(=O)Nc2cc(Cl)ccc2Cl)c1=S`, the AC50 under setting [1] was 20 µM [falling, partial curve].

Turning to `Cc1ccc(N2CC(C(=O)Nc3ccc4c(c3)OCO4)CC2=O)cc1` (stereo not given), under setting [1], the AC50 is 32.6 µM [rising, single point].

Turning to `CCCc1ccc(Oc2cc(Cl)nc(N)n2)cc1`, under setting [1], the AC50 is 2.31 µM [rising, full curve].

Consider `O=[N+]([O-])c1ccc(CSc2nc3ccccc3o2)cc1`, for which the AC50 under setting [1] was 3.55 µM [rising, full curve].

For the compound `Cc1ccc(OCc2nc3ccccc3[nH]2)cc1`, the AC50 under setting [1] was 10.3 µM [falling, partial curve].

Take `O=C(Nn1cnnc1)c1cccc(S(=O)(=O)N2CCOCC2)c1`: under setting [1], the AC50 is 7.08 µM [falling, partial curve].
